Measurements: the supplement of paper PMC12819154, “High-throughput peptide-centric local stability assay extends protein–ligand identification to membrane proteins, tissues and bacteria” (Nature Structural & Molecular Biology, 2025)
Some of the results follow. Most values lie at the level of the controls, where differences are scatter.

Sequences of proteins named here, by UniProt entry; tags and fusion partners are left off. A change or cut given only in a name is not applied to a line headed by its entry.
UniProt Q9Z2M7: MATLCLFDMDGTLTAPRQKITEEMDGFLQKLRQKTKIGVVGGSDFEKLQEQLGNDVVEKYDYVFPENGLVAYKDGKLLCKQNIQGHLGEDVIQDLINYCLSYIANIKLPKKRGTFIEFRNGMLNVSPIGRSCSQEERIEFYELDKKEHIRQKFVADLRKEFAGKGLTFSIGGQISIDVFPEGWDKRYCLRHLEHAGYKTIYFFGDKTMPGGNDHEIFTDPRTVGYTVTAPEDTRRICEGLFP
UniProt Q9Z2C4, whole entry: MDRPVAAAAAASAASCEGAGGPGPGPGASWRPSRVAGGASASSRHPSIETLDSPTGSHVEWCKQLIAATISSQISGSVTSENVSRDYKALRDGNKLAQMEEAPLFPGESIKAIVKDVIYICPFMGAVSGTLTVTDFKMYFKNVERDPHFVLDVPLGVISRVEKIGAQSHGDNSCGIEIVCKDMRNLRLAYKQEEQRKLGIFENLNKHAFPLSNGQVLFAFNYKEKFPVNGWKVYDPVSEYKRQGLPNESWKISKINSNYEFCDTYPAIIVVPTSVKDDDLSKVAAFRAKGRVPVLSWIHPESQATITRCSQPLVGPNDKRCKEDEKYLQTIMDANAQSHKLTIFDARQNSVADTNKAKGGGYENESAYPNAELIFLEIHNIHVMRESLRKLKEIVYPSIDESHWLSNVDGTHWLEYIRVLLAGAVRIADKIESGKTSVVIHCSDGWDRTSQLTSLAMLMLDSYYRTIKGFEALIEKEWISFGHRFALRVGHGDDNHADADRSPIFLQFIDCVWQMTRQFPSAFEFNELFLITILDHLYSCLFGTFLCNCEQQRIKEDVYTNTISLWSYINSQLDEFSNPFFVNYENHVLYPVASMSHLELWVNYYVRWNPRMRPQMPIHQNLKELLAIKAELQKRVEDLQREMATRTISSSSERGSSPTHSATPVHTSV
UniProt Q9Z120: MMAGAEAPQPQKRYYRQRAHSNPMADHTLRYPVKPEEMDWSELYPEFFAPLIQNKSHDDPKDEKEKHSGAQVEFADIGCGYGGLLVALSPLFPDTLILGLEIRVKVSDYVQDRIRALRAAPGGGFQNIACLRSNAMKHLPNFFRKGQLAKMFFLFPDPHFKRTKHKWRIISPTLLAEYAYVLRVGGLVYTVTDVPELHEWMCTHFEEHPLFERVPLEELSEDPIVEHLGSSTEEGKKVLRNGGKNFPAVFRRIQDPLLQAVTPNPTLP
UniProt Q9Z0W3: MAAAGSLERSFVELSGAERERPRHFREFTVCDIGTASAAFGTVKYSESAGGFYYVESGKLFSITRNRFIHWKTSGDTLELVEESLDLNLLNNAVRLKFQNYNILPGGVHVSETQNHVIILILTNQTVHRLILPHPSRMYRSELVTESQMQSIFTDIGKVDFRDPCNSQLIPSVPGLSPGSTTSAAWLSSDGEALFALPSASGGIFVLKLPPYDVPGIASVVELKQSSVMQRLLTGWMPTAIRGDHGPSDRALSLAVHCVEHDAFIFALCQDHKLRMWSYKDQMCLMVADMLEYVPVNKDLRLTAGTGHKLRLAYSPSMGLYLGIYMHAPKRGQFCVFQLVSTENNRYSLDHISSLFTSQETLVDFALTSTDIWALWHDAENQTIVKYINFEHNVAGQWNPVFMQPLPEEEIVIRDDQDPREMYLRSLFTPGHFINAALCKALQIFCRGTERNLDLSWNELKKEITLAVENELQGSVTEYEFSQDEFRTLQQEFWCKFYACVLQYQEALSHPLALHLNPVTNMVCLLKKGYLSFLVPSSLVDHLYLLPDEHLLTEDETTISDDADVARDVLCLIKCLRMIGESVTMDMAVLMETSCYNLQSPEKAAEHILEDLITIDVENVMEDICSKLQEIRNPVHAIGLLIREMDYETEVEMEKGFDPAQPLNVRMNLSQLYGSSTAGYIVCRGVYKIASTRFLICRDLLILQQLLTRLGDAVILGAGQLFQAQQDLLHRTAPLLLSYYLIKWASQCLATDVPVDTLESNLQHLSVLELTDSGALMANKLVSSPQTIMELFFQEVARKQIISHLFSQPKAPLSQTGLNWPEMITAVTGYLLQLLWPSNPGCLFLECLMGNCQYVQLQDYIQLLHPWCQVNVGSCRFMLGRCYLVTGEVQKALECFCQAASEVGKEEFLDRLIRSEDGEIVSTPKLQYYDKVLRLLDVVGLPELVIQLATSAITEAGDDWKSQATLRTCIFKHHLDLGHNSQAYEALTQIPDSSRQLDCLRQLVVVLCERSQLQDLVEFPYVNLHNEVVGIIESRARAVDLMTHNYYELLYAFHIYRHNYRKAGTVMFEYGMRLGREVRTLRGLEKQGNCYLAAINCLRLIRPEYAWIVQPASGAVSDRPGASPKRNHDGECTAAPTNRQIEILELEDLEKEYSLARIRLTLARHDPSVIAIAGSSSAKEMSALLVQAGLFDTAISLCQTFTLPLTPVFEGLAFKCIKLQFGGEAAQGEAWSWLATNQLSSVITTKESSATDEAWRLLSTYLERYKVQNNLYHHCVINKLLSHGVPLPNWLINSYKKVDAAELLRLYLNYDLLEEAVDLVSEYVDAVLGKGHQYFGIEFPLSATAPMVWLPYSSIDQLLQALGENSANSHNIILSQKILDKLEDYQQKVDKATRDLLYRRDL
UniProt Q9Z0M9: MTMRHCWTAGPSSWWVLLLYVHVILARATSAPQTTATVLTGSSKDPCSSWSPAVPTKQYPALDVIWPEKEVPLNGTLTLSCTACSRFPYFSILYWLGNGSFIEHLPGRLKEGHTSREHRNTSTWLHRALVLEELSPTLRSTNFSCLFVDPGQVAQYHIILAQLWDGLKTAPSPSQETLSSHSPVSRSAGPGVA
UniProt Q9Z2R9, whole entry: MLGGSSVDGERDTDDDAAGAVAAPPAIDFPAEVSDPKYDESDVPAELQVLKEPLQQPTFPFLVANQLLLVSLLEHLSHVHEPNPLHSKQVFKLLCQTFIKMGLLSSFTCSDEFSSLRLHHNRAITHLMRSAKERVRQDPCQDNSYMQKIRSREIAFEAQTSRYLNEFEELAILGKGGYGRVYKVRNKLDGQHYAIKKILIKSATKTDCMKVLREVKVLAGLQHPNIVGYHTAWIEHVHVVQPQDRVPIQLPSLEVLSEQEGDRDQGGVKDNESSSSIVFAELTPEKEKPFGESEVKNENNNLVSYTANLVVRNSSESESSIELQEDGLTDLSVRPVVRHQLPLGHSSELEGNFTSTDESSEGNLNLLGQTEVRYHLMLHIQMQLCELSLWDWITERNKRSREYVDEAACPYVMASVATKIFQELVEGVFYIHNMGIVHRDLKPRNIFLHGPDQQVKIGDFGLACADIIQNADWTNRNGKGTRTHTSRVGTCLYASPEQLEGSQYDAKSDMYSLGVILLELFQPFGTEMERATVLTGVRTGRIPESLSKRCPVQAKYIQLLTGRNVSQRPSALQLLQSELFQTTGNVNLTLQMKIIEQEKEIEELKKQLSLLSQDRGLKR
UniProt Q9Z0R6: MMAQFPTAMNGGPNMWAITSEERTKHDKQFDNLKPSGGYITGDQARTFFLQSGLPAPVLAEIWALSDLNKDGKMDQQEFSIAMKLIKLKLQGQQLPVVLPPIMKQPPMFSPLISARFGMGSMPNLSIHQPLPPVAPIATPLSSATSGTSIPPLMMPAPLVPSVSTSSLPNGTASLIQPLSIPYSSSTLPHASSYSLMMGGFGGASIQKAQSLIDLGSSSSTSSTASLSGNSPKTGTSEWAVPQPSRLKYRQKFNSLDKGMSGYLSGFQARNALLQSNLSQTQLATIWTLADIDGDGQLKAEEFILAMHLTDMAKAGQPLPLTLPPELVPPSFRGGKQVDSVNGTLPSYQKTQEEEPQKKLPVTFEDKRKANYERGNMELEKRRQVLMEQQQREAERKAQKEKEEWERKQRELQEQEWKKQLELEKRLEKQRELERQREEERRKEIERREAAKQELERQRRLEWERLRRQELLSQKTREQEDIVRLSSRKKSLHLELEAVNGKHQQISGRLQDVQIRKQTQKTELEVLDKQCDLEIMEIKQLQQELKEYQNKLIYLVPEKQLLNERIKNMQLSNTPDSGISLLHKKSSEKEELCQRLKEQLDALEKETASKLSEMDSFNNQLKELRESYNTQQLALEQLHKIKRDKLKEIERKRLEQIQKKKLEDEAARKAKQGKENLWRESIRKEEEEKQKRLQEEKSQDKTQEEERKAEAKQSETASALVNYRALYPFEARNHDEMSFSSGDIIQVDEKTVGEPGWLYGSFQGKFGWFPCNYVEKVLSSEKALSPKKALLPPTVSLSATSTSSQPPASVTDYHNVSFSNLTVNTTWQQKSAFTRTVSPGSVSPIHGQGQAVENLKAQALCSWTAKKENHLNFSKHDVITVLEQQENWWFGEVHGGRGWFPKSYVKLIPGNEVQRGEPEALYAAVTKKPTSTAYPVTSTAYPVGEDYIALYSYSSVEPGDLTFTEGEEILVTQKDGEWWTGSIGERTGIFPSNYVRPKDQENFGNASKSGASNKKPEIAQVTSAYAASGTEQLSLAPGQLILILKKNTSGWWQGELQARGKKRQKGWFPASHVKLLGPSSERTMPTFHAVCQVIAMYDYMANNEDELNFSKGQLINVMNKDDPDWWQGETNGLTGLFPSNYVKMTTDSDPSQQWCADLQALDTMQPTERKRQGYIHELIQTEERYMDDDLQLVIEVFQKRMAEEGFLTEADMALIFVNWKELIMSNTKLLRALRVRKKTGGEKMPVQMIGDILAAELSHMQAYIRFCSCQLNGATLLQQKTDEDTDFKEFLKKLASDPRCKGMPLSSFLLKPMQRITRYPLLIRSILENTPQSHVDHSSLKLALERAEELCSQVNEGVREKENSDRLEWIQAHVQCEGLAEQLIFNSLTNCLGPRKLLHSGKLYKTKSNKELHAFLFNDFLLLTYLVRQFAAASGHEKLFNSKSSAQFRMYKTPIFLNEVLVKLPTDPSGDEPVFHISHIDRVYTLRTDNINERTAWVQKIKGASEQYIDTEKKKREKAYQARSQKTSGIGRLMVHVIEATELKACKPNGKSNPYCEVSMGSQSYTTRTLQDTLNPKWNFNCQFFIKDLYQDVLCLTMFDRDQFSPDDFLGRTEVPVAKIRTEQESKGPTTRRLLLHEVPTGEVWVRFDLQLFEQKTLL
UniProt Q9Z0X0: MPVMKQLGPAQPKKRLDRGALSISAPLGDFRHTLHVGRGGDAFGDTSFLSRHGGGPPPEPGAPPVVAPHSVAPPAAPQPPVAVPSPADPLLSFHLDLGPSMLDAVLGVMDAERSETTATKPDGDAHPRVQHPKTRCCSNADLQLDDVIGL
UniProt Q9Z0H7: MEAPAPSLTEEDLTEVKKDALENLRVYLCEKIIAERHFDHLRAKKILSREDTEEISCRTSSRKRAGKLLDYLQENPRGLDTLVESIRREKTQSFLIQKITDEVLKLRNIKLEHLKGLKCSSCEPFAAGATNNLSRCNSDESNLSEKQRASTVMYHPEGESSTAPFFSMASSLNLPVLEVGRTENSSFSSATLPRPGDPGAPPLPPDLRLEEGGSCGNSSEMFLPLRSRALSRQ
UniProt Q9Z0X1, whole entry: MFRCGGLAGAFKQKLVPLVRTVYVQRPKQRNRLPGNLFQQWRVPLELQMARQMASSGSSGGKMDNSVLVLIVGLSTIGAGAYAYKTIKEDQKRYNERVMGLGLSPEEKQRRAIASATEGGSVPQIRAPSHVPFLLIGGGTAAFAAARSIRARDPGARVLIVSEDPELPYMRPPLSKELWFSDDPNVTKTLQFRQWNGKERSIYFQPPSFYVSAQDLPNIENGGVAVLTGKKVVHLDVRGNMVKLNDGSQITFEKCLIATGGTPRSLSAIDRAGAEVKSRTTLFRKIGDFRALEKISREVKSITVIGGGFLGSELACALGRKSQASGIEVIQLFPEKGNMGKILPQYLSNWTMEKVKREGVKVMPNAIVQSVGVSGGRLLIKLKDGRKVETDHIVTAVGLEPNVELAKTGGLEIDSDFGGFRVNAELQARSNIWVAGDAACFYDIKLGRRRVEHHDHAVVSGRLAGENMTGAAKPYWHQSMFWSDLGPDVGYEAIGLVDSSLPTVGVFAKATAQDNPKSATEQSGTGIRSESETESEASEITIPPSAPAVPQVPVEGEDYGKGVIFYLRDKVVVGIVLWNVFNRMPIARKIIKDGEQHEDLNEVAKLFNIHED

These targets were tested with CN[C@@H]1C[C@H]2O[C@@](C)([C@@H]1OC)n1c3ccccc3c3c4c(c5c6ccccc6n2c5c31)C(=O)NC4 [staurosporine] (assay: log2 fold change of tryptic peptide abundance, ligand vs vehicle (limited proteolysis) (log2 ratio); higher = more trypsin-susceptible (destabilized)). Conditions: ligand concentration: 20 uM; sample: mouse liver crude lysate; replicate design: treated separately.

| Target | log2 fold change |
| --- | --- |
| UniProt Q9Z204 (peptide sequence: IVGCSVHK, peptide start residue: 43) | -0.27 |
| UniProt Q9Z0S1 (peptide sequence: LTDIHGNALQYNK, peptide start residue: 262) | -0.432 |
| UniProt Q9Z2M7 (peptide sequence: QKFVADLR, peptide start residue: 151) | 0.21 |
| UniProt Q9Z127 (peptide sequence: EKMLEAR, peptide start residue: 27) | -0.491 |
| UniProt Q9Z2C4 (peptide sequence: VAGGASASSR, peptide start residue: 35) | -0.0811 |
| UniProt Q9Z2W0 (peptide sequence: VLDLGSPQLAMHSIR, peptide start residue: 427) | 0.439 |
| UniProt Q9Z120 (peptide sequence: SHDDPKDEKEK, peptide start residue: 56) | 0.321 |
| UniProt Q9WVS6 (peptide sequence: ILGEEQYTR, peptide start residue: 305) | 0.269 |
| UniProt Q9Z210 (peptide sequence: HGASPELQK, peptide start residue: 35) | -0.637 |
| UniProt Q9Z277 (peptide sequence: DSSSLSSPLNPK, peptide start residue: 324) | -0.311 |
| UniProt Q9Z0W3 (peptide sequence: GFDPAQPLNVR, peptide start residue: 656) | 0.407 |
| UniProt Q9Z0M9 (peptide sequence: ALVLEELSPTLR, peptide start residue: 128) | -0.38 |
| UniProt Q9Z2Z6 (peptide sequence: FQTAPPGKYPNGFR, peptide start residue: 237) | 0.295 |
| UniProt Q9Z266 (peptide sequence: VALDLDPYVK, peptide start residue: 74) | -0.352 |
| UniProt Q9Z0E6 (peptide sequence: TKAEAAEAANR, peptide start residue: 492) | -0.806 |
| UniProt Q9Z2R9 (peptide sequence: IIEQEKEIEELKK, peptide start residue: 594) | -0.395 |
| UniProt Q9Z104 (peptide sequence: YLDEAEKEK, peptide start residue: 119) | 0.418 |

2 entries from above in a different format:
Target | log2 fold change
UniProt Q9Z0S1 (peptide sequence: LTDIHGNALQYNK, peptide start residue: 262) | -0.432
UniProt Q9Z104 (peptide sequence: YLDEAEKEK, peptide start residue: 119) | 0.418

The results go on.

| Target | log2 fold change |
| --- | --- |
| UniProt Q9Z126 (peptide sequence: HCAVPQLIATLK, peptide start residue: 70) | 0.174 |
| UniProt Q9Z2D6 (peptide sequence: KPGSVVAAAAAEAKK, peptide start residue: 271) | -0.574 |
| UniProt Q9Z0R6 (peptide sequence: GNMELEKR, peptide start residue: 375) | -0.339 |
| UniProt Q9Z2I0 (peptide sequence: ALGVTEDR, peptide start residue: 385) | -0.16 |
| UniProt Q9Z0X0 (peptide sequence: GGDAFGDTSFLSR, peptide start residue: 39) | 0.21 |
| UniProt Q9Z1N9 (peptide sequence: VAHVQQMK, peptide start residue: 590) | -0.285 |
| UniProt Q9Z1M8 (peptide sequence: LTNEDFRK, peptide start residue: 31) | -0.74 |
| UniProt Q9Z0H7 (peptide sequence: GLDTLVESIR, peptide start residue: 78) | -0.264 |
| UniProt Q9Z1Z2 (peptide sequence: AATAAADFTAK, peptide start residue: 74) | -0.492 |
| UniProt Q9Z2G6 (peptide sequence: TYEELKR, peptide start residue: 99) | -0.21 |
| UniProt Q9Z0F8 (peptide sequence: IIKPFPAPQTPGR, peptide start residue: 726) | -0.365 |
| UniProt Q9Z1W9 (peptide sequence: EGPCAVNLVLR, peptide start residue: 458) | -0.609 |
| UniProt Q9Z1T1 (peptide sequence: EDGGLEDNEK, peptide start residue: 262) | 0.598 |
| UniProt Q9Z1Q9 (peptide sequence: FGLCAYTSQGR, peptide start residue: 923) | 0.271 |
| UniProt Q9Z0X1 (peptide sequence: VEHHDHAVVSGR, peptide start residue: 451) | -0.48 |
| UniProt Q9Z160 (peptide sequence: LAWLSSMTK, peptide start residue: 972) | -0.267 |
| UniProt Q9Z0H1 (peptide sequence: LGYDPDAK, peptide start residue: 539) | -0.113 |
